Reference: the supplement of paper PMC10849652
The list shows a part of the results.

Chains of the proteins cited; added tags and fusions are not shown. Lines headed by an entry give the natural chain unless they say otherwise; changes in a name come on top.
UniProt P78316: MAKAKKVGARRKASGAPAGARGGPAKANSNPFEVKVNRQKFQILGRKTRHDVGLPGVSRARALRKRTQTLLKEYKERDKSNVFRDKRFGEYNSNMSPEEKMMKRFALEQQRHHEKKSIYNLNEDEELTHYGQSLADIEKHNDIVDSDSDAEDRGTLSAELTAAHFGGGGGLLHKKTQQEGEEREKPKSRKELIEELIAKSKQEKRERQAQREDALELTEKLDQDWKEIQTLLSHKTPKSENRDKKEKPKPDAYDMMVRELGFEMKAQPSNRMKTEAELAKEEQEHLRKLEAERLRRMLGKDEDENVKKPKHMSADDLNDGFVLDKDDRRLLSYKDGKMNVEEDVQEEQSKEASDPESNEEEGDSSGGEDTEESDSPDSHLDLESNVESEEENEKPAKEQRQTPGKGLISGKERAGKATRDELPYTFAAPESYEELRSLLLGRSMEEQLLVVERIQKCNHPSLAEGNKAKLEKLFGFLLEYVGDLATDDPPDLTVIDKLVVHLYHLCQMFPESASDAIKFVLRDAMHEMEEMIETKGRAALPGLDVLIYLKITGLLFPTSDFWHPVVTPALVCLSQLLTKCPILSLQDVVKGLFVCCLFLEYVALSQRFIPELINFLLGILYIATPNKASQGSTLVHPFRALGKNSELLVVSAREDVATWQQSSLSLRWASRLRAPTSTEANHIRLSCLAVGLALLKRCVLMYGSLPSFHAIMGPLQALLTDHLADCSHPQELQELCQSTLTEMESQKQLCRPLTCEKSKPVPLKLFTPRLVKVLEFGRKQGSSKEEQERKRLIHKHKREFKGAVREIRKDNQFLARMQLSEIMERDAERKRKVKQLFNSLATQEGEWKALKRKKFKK
UniProt P49116: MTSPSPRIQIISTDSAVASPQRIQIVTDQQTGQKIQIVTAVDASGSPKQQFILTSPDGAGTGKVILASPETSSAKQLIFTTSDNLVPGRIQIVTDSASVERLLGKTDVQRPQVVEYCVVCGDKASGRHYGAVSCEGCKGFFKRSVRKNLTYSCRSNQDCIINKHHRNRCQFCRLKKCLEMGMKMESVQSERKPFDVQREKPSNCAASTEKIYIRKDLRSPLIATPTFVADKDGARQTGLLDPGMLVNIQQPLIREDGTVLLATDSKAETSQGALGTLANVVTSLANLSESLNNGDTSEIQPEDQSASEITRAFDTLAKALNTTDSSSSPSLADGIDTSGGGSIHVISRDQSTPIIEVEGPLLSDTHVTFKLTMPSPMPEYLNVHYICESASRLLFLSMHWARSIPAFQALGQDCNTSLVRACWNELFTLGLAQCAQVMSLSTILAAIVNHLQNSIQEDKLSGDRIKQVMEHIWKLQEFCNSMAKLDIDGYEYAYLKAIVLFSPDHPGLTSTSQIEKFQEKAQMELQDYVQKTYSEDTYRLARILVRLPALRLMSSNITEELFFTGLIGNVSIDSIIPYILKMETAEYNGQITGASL
UniProt Q86WQ0: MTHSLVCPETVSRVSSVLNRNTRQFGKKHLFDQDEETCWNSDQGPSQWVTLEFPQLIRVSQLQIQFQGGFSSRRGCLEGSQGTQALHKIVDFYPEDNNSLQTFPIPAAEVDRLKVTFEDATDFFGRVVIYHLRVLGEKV
UniProt Q9NYR9: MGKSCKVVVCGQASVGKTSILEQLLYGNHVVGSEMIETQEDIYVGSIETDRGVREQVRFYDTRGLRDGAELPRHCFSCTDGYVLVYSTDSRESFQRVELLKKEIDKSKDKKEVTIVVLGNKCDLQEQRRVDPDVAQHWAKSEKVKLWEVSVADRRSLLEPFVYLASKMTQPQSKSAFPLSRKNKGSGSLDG
UniProt Q96L73: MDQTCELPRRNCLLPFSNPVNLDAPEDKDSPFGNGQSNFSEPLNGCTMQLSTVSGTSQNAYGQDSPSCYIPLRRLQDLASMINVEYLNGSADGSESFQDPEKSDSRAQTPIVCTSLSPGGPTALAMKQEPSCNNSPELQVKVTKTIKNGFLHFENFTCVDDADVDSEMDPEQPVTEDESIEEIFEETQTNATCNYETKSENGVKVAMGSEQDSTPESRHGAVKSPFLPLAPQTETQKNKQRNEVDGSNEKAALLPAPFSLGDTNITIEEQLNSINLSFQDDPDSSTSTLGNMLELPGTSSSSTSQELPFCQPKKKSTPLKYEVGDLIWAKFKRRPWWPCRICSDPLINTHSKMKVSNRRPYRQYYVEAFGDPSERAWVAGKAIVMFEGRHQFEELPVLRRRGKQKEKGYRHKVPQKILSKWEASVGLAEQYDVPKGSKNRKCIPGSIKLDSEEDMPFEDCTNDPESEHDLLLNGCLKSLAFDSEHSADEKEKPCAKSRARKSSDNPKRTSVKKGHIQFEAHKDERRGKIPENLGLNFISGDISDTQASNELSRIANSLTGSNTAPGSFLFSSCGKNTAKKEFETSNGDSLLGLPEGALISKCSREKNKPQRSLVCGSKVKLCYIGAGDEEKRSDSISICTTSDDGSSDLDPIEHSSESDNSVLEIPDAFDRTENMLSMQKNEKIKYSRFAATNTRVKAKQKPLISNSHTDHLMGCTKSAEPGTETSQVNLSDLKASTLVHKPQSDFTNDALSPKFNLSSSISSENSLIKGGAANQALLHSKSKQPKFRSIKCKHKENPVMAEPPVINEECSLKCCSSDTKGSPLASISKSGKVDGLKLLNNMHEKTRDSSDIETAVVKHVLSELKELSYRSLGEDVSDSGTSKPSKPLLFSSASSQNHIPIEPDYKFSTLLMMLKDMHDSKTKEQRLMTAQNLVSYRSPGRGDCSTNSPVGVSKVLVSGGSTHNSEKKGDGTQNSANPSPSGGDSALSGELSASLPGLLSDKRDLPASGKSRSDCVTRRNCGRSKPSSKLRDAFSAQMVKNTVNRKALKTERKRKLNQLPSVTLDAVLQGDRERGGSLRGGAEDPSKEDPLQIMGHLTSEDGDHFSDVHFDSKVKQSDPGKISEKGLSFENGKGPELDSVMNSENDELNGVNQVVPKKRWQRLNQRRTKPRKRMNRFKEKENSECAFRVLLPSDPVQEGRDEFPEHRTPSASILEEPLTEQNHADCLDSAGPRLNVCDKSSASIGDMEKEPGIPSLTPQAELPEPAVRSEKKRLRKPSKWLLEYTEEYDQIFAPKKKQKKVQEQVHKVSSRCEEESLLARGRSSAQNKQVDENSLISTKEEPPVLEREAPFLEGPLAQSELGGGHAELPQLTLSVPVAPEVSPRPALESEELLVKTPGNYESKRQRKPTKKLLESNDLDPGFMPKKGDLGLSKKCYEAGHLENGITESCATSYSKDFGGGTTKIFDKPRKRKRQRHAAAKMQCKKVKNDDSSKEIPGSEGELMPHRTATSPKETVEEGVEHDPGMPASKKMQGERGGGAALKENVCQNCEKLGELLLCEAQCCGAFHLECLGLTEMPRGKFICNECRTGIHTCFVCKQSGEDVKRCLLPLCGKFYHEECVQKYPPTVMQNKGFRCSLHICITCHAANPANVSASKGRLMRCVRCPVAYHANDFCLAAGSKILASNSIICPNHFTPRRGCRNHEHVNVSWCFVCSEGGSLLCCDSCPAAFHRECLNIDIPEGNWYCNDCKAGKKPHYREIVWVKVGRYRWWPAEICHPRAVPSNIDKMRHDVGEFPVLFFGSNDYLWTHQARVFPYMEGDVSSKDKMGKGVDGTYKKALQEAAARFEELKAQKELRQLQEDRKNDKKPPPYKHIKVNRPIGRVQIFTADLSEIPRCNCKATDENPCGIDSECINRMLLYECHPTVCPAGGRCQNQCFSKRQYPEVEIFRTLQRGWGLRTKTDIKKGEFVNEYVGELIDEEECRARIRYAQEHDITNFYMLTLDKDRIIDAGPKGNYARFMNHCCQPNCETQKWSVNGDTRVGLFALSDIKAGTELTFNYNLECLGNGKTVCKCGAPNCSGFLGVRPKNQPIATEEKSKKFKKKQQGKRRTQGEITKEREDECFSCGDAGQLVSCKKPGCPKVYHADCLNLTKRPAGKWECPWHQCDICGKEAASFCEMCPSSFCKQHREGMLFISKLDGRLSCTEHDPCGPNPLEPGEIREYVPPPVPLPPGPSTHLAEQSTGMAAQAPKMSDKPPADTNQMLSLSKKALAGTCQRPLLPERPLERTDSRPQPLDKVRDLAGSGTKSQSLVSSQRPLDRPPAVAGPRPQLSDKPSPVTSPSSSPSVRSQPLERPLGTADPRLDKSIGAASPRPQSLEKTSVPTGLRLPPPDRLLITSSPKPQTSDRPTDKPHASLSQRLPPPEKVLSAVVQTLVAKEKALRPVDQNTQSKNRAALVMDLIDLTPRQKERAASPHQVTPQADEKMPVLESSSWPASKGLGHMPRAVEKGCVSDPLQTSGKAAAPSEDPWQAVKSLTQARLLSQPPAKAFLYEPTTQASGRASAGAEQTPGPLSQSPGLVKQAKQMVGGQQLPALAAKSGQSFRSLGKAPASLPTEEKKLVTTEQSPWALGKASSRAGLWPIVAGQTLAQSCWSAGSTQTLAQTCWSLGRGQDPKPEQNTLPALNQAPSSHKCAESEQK
UniProt O14524: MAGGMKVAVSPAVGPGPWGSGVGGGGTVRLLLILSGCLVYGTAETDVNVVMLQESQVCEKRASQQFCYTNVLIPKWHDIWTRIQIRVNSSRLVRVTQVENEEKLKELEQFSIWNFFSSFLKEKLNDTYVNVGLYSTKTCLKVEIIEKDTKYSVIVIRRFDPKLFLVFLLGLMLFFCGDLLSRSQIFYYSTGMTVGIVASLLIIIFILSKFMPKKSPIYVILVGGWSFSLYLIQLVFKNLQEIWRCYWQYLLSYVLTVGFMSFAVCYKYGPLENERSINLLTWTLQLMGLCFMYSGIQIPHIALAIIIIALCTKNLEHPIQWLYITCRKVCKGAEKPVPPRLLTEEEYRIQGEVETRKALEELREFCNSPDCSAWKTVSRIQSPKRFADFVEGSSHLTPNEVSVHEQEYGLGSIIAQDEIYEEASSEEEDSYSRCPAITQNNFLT
UniProt O75607: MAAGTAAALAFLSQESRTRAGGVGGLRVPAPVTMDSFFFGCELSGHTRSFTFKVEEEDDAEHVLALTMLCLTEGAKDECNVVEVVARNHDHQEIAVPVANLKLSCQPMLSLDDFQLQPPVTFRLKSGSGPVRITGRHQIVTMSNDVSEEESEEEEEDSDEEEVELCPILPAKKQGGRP
UniProt P30419: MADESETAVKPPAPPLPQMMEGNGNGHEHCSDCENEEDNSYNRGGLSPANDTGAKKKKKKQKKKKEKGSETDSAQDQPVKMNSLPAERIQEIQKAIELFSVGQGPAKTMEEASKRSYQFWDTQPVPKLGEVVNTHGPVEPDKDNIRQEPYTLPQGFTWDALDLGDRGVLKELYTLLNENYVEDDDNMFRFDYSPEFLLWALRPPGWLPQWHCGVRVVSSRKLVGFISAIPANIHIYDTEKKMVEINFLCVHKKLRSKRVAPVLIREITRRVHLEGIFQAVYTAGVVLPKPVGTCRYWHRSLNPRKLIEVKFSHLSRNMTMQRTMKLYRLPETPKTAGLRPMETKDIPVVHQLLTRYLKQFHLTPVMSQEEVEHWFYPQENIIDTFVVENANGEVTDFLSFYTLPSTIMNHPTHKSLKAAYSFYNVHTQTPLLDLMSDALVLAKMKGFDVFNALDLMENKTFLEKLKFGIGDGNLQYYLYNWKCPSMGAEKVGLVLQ
UniProt Q96D46: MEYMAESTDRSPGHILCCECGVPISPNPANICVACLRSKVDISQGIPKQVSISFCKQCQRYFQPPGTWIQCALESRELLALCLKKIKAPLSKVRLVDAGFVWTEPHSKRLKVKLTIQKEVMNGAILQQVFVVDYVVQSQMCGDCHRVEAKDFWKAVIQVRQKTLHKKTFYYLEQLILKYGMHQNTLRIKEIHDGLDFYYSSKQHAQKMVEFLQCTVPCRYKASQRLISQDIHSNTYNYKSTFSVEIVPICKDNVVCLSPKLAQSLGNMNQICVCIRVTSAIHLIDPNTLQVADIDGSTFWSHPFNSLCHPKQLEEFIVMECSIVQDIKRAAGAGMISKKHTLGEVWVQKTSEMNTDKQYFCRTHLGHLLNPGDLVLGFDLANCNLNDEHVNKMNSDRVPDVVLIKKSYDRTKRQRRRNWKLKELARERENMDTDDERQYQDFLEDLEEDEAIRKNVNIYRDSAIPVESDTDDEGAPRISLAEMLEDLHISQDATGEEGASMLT

Key:
Experiment in all cases: log2 fold change, soluble protein after heating vs DMSO (PISA); higher = thermal stabilisation; K562 cells, 10 uM, 30 min; active = over 0.2 and 3.5 SD of the protein, either way, in both replicates (recomputed)
[1] = compound: COC1=CC=C(C=C1)CN2C=CC3=C2C=C(C=C3)C(=O)NO
Summary of the method: (§1)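 K562 cells at 2×10^6 cells/mL were given 10 μM compound for 30 min. Aliquots then went through 3 min of heating across 48°C-58°C, were pooled, and were extracted in PBS with 0.5% NP-40 at 4°C, and the supernatant after 21,000xg for 90 min was quantified by TMTpro 16plex LC-MS/MS with channel sums equalised. Thermal stability relative to control samples, from duplicates, is given as log2 fold change.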

[2] = compound: CON(C)C(=O)N1N=C(c2cc(F)ccc2F)S[C@@]1(CCCN)c1ccccc1 [filanesib]
Summary of the method: as §1

[3] = compound: CO[C@H]1C[C@@H]2CC[C@@H](C)[C@@](O)(O2)C(=O)C(=O)N2CCCC[C@H]2C(=O)O[C@H]([C@H](C)C[C@@H]2CC[C@H](n3cnnn3)[C@H](OC)C2)CC(=O)[C@H](C)/C=C(\C)[C@@H](O)[C@@H](OC)C(=O)[C@H](C)C[C@H](C)/C=C/C=C/C=C/1C [zotarolimus]
Summary of the method: as §1

[4] = compound: COc1cc(C(=O)O)ccc1NC(=O)[C@@H]1N[C@@H](CC(C)(C)C)[C@](C#N)(c2ccc(Cl)cc2F)[C@H]1c1cccc(Cl)c1F [idasanutlin]
Summary of the method: as §1

[5] = compound: COc1cc(Nc2ncc3c(n2)-c2ccc(Cl)cc2C(c2c(F)cccc2OC)=NC3)ccc1C(=O)O [alisertib]
Summary of the method: as §1

[6] = compound: COc1cc2ncnc(Nc3ccc(F)c(Cl)c3)c2cc1OCCCN1CCOCC1 [gefitinib]
Summary of the method: as §1

[7] = compound: COc1cccc2cc(-c3nc([C@H]4CC[C@H](C(=O)O)CC4)n4ncnc(N)c34)[nH]c12
Summary of the method: as §1

[8] = compound: CS(=O)(=O)N1CCN(Cc2cc3nc(-c4cccc5[nH]ncc45)nc(N4CCOCC4)c3s2)CC1 [pictilisib]
Summary of the method: as §1

[9] = compound: CS(=O)(=O)c1ccc(-c2cnc(N)c(C(=O)Nc3ccccc3)n2)cc1
Summary of the method: as §1

[10] = compound: C[C@@H](Oc1cc(-c2cnn(C3CCNCC3)c2)cnc1N)c1c(Cl)ccc(F)c1Cl [crizotinib]
Summary of the method: as §1

[11] = compound: C[C@@H]1COCCN1C2=NC(=NC(=C2)C3(CC3)S(=O)(=O)C)C4=C5C=CNC5=CC=C4
Summary of the method: as §1

[12] = compound: C[C@H](C1=CC=C(C=C1)C(=O)NC2=C3C=CNC3=NC=C2)N
Summary of the method: as §1

[13] = compound: C[C@H](Nc1ncnc2nc[nH]c12)c1cc2cccc(Cl)c2c(=O)n1-c1ccccc1 [duvelisib]
Summary of the method: as §1

[14] = compound: Cc1cc(Nc2cc(CN3CCOCC3)c3nc(C)c(Cc4ccc(Cl)cc4F)n3n2)n[nH]1 [gandotinib]
Summary of the method: as §1

[15] = compound: Cc1cc(Nc2cc(N3CCN(C)CC3)nc(Sc3ccc(NC(=O)C4CC4)cc3)n2)n[nH]1 [tozasertib]
Summary of the method: as §1

[16] = compound: Cc1cc(SCc2sc(-c3ccc(C(F)(F)F)cc3)nc2C)ccc1OCC(=O)O
Summary of the method: as §1

[17] = compound: Cc1ccc(-n2nc(C(C)(C)C)cc2NC(=O)Nc2ccc(OCCN3CCOCC3)c3ccccc23)cc1 [doramapimod]
Summary of the method: as §1

[18] = compound: COc1cc2nc(-c3cc(F)ccc3O)nc(N[C@@H]3CNC[C@H]3C(C)(C)O)c2cc1OC
Summary of the method: as §1

[19] = compound: CS(=O)(=O)CCNCc1ccc(-c2ccc3ncnc(Nc4ccc(OCc5cccc(F)c5)c(Cl)c4)c3c2)o1 [lapatinib]
Summary of the method: as §1

[20] = compound: Cc1ccc(C(=O)N(CCCN)[C@@H](c2nc3cc(Cl)ccc3c(=O)n2Cc2ccccc2)C(C)C)cc1 [ispinesib]
Summary of the method: as §1

Target	log2 fold change [1]	log2 fold change [2]	log2 fold change [3]	log2 fold change [4]	log2 fold change [5]	log2 fold change [6]	log2 fold change [7]	log2 fold change [8]	log2 fold change [9]	log2 fold change [10]	log2 fold change [11]	log2 fold change [12]	log2 fold change [13]	log2 fold change [14]	log2 fold change [15]	log2 fold change [16]	log2 fold change [17]	log2 fold change [18]	log2 fold change [19]	log2 fold change [20]
NOP14 (UniProt P78316)	inactive: 0.063	inactive: -0.008	inactive: -0.001	inactive: 0.282	inactive: -0.041	inactive: 0.037	inactive: -0.121	inactive: -0.097	inactive: 0.009	inactive: -0.021	inactive: 0.11	inactive: 0.353	inactive: -0.083	inactive: 0	inactive: 0.182	inactive: 0.082	inactive: 0.056			
NR2C2 isoform 2 (UniProt P49116)	inactive: 0.026	inactive: 0.019	inactive: 0.055	inactive: 0.041	inactive: -0.173	inactive: -0.052	inactive: 0.084	inactive: 0.019	inactive: 0.016	inactive: 0.063	inactive: 0.054	inactive: -0.076		inactive: -0.047		inactive: 0.022	inactive: 0.011	inactive: 0.028	inactive: -0.004	inactive: 0.009
NR2C2AP isoform 2 (UniProt Q86WQ0)	inactive: 0.101	inactive: 0.01	inactive: -0.014	inactive: -0.062	inactive: -0.066	inactive: -0.01	inactive: 0.093	inactive: 0.08	inactive: 0.085	inactive: 0.011	inactive: 0.138	inactive: 0.025		inactive: -0.035		inactive: 0.01	inactive: -0.17	inactive: -0.034	inactive: -0.011	active: 0.285
NKIRAS2 (UniProt Q9NYR9)	inactive: 0.009	inactive: 0.124			inactive: -0.077	inactive: 0.043	inactive: -0.007		inactive: 0.09	inactive: -0.017	inactive: 0.015				inactive: -0.058		inactive: -0.079			
NSD1 (UniProt Q96L73)	inactive: -0.127	inactive: 0.021		inactive: 0.129	inactive: -0.084	inactive: -0.025	inactive: 0.002	inactive: -0.07	inactive: 0.054	inactive: 0.061			inactive: -0.019	inactive: 0.121		inactive: -0.064	inactive: -0.019			
NEMP1 (UniProt O14524)	inactive: -0.041	inactive: -0.247	inactive: -0.021	inactive: 0.034	inactive: -0.084	inactive: -0.021	inactive: 0.006	inactive: -0.02	inactive: -0.058	inactive: -0.121	inactive: -0.035	inactive: 0.011		inactive: -0.1		inactive: -0.014	inactive: 0.032	active: -0.487	inactive: 0.001	active: -0.354
NPM3 (UniProt O75607)	inactive: 0.123	inactive: 0.116	inactive: 0.104	inactive: 0.258	inactive: -0.205	inactive: -0.011	inactive: -0.069	inactive: -0.025	inactive: -0.125	inactive: 0.001		inactive: -0.043		inactive: 0.109		inactive: -0.011	inactive: 0.024	inactive: 0.006	inactive: -0.003	inactive: 0.022
NMT1 (UniProt P30419)	inactive: -0.023	inactive: -0.005	inactive: 0.042	inactive: -0.015	inactive: -0.056	inactive: -0.044	inactive: 0.018	inactive: 0.029	inactive: 0.085	inactive: -0.17	inactive: -0.058	inactive: -0.032		inactive: 0.066		inactive: -0.003	inactive: 0	inactive: -0.009	inactive: 0.03	inactive: -0.164
NGLY1 (UniProt Q96IV0)	inactive: 0.02	inactive: 0.043	inactive: -0.012	inactive: 0.112	inactive: -0.064	inactive: 0.076	inactive: -0.128	inactive: 0.045	inactive: 0.017	inactive: -0.079	inactive: -0.01	inactive: 0.093		inactive: -0.043		inactive: 0.032	inactive: 0.001	inactive: 0.047	inactive: 0.03	inactive: -0.059
NMD3 (UniProt Q96D46)	inactive: 0.004	inactive: -0.221	inactive: 0.008	inactive: -0.095	inactive: -0.034	inactive: 0.007	inactive: 0.016	inactive: 0.089	inactive: 0.094	inactive: 0.003	inactive: 0.122	inactive: -0.179		inactive: 0.007		inactive: 0.03	inactive: -0.013	inactive: 0.108	inactive: 0	inactive: 0.139
